# Measurements reported in the supplement of paper PMC9233669.
# Variants at the floor of the assay are shown more often than the library holds them.
# Legend:
# biotinyl-Phe-oxazolone = test: self-aminoacylation, catalytic enhancement (BFO) (fold over background); higher = more active; k-Seq, kA / k0A0; sequences stand for … in GGGAAUGGAUCCACAUCUACGAAUUC…UUCACUGCAGACUUGACGAAGCUG
# How it was run: (§1)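 The uncatalyzed rate is the low-activity peak of a bimodal Gaussian fit, and catalytic enhancement is median kA divided by it. The kA values came from pseudo-first-order fits, with 1000 bootstraps, of per-sequence fraction reacted measured by streptavidin capture, triplicate qPCR and Illumina sequencing. Mutagenized RNA pools with a 21-nt variable region (0.43 μM) were reacted with each biotinyl-aminoacyl-oxazolone at 2–1250 μM in 50 μL HEPES/NaCl/KCl/MgCl2/CaCl2 buffer with 5% acetonitrile, pH 6.9–7.0, for 90 minutes at room temperature.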
# biotinyl-Ile-oxazolone = test: self-aminoacylation, catalytic enhancement (BIO) (fold over background); higher = more active; k-Seq, kA / k0A0; sequences stand for … in GGGAAUGGAUCCACAUCUACGAAUUC…UUCACUGCAGACUUGACGAAGCUG
# How it was run: as §1
# biotinyl-Met-oxazolone = test: self-aminoacylation, catalytic enhancement (BMO) (fold over background); higher = more active; k-Seq, kA / k0A0; sequences stand for … in GGGAAUGGAUCCACAUCUACGAAUUC…UUCACUGCAGACUUGACGAAGCUG
# How it was run: as §1
# biotinyl-Trp-oxazolone = test: self-aminoacylation, catalytic enhancement (BWO) (fold over background); higher = more active; k-Seq, kA / k0A0; sequences stand for … in GGGAAUGGAUCCACAUCUACGAAUUC…UUCACUGCAGACUUGACGAAGCUG
# How it was run: as §1
# biotinyl-Leu-oxazolone = test: self-aminoacylation, catalytic enhancement (BLO) (fold over background); higher = more active; k-Seq, kA / k0A0; sequences stand for … in GGGAAUGGAUCCACAUCUACGAAUUC…UUCACUGCAGACUUGACGAAGCUG
# How it was run: as §1
# biotinyl-Val-oxazolone = test: self-aminoacylation, catalytic enhancement (BVO) (fold over background); higher = more active; k-Seq, kA / k0A0; sequences stand for … in GGGAAUGGAUCCACAUCUACGAAUUC…UUCACUGCAGACUUGACGAAGCUG
# How it was run: as §1
Sequence,self-aminoacylation (biotinyl-Phe-oxazolone),self-aminoacylation (biotinyl-Ile-oxazolone),self-aminoacylation (biotinyl-Met-oxazolone),self-aminoacylation (biotinyl-Trp-oxazolone),self-aminoacylation (biotinyl-Leu-oxazolone),self-aminoacylation (biotinyl-Val-oxazolone)
GUACUUCCAACAAUCGGUCUG [Fam1A.1 aminoacylation ribozyme variant],2,1.3,1.07,1.33,1.25,1.2
AUUACCGUGGUAAUCGAGUGA [Fam2.1 aminoacylation ribozyme variant],43.2,3.63,8.54,9.95,9.2,4.18
CUACUUCAAACAAUCCGACUG [Fam1A.1 aminoacylation ribozyme variant],1.02,0.626,0.442,0.415,0.419,0.645
CUGCUUCUAACAAUCGGUCUG [Fam1A.1 aminoacylation ribozyme variant],0.632,0.691,0.571,0.445,0.546,0.626
AUUACCGUGGUCAUCGAGUCA [Fam2.1 aminoacylation ribozyme variant],0.628,0.869,0.771,0.457,0.745,0.855
CUACCUCAGACAAUCGGUCUG [Fam1A.1 aminoacylation ribozyme variant],0.589,0.992,0.835,0.724,0.653,0.985
CCUCACUUCAAGCAAUCGGUU [Fam1B.1 aminoacylation ribozyme variant],9.36,1.34,1.45,6.83,1.7,1.61
CCACACUUCCAACAAUCGGUC [Fam1B.1 aminoacylation ribozyme variant],1.55,0.697,0.814,0.919,0.729,0.829
AAGUUUGCUAAUAGUCUCAGG [Fam3.1 aminoacylation ribozyme variant],1.44,1.42,1.35,1.42,1.26,1.32
CCACAGUCCAAGCAAUCGGUC [Fam1B.1 aminoacylation ribozyme variant],1.46,0.927,1.06,1.73,1.1,1.48
AUUACCCUGGUACUCGAGUGA [Fam2.1 aminoacylation ribozyme variant],10.3,1.76,2.66,3.35,2.66,1.96
CUAGUUCAAACAAUCUGUCUG [Fam1A.1 aminoacylation ribozyme variant],0.903,0.866,0.702,0.812,0.79,0.733
AGUCACCUAGGUCCUCGGGUG [Fam2.2 aminoacylation ribozyme variant],37.5,5.66,6.34,9.19,6.54,4.64
CUACUUCCAACAAUCGCUCUG [Fam1A.1 aminoacylation ribozyme variant],0.675,0.894,0.711,0.5,0.858,0.71
AAGUUUGCUAAAAGUCGGAAG [Fam3.1 aminoacylation ribozyme variant],5.57,0.814,0.755,1.22,0.778,0.924
CCACACUUCAAAGAAUCGGUC [Fam1B.1 aminoacylation ribozyme variant],12.1,0.988,0.888,9.57,1.17,0.955
AUUACCCUGCUCAUCGAGUGC [Fam2.1 aminoacylation ribozyme variant],1.13,0.616,0.666,0.392,0.555,0.835
AUCCACCUAGGUCAUCUGGUG [Fam2.2 aminoacylation ribozyme variant],26.4,2.26,2.77,2.77,3.74,2.28
AUUCACCUAGAUCAUCGGGAG [Fam2.2 aminoacylation ribozyme variant],0.606,1.09,0.94,1.33,1.13,1.11
CCACACUACAAGCAACCGGUC [Fam1B.1 aminoacylation ribozyme variant],1.03,1.29,0.649,0.793,0.948,0.674
GUACUUCAGACAAUCGGUCUG [Fam1A.1 aminoacylation ribozyme variant],4.98,1.22,1.2,1.56,1.32,1.06
UUACUUAAAACAAUCGGUCUG [Fam1A.1 aminoacylation ribozyme variant],1.33,1.09,1.24,1.02,1.06,0.963
CCACACAUCAAGUAAUCGGUC [Fam1B.1 aminoacylation ribozyme variant],0.926,0.992,1.01,0.742,0.915,0.745
AUUACCGUGAUCAUCGAGUGA [Fam2.1 aminoacylation ribozyme variant],44.9,4.18,9.07,10.5,8.78,4.34
CCACACUUCACGCAAGCGGUC [Fam1B.1 aminoacylation ribozyme variant],0.897,1.31,1.33,0.776,1.22,1.41
AAGUCUGCUAAUAGUCGCAAC [Fam3.1 aminoacylation ribozyme variant],1.39,1.03,1.04,0.655,1.39,1.06
